The text below walks through data of patent publication US11578125B2, “Anti-thyroid hormone (T4) recombinant antibody or antigen binding fragment” (Teknologian tutkimuskeskus VTT Oy, priority 2018, dated 2023).

In this series the test system is anti-T4 Fab. Briefly: competitive ELISA, T4-BSA coated wells, 0.25 nM anti-T4 Fab pre-incubated with analyte. It counts as binding, mouse. Conditions: for sensitivity of the competitive ELISA assay compared with L-thyroxine: LOD and LOQ. The method, then:
Microtiter plate wells (Nunc, 436023) were coated with 100 μl of 4 μg/ml T4-BSA (Fitzgerald, 80-IT50) in PBS (15 mM phosphate, 150 mM NaCl, pH 7.3) for one hour at +37° C. with 600 rpm shaking. Wells were then washed three times with 300 μl PBS supplemented with 0.05% (v/v) Tween20 (Sigma-Aldrich, 93773-250G). Wells were blocked with 200 μl of Superblock® (Thermo Fisher Scientific, 37516) for 30 minutes in room temperature with 600 rpm shaking and washed as above. 100 μl of pre-incubated mixtures, containing 0.25 nM anti-T4 Fab and varying concentrations of L-thyroxine (T4) (Sigma-Aldrich, T2376) in PBSP (GE Healthcare, 28-9950-84) supplemented with 1% DMSO (v/v) (Sigma-Aldrich, D5879-100ML), were transferred to wells and incubated for 30 minutes with 600 rpm shaking in room temperature. Each sample had 12 replicates. Wells were washed as above and 100 μl of Goat anti-mouse Kappa-HRP (SoutherBiotech, 1050-05) diluted 1:1000 in Superblock was transferred to wells and incubation was carried out for 30 minutes at 600 rpm shaking in room temperature. Wells were washed as above and 100 μl of TMB Microwell Peroxidase Substrate System (2-C) (SeraCare, 50-76-00) was transferred to wells and enzymatic reaction was carried out for 30 minutes with 600 rpm shaking in room temperature. Reactions were stopped by transferring 100 μl of 1 M H3PO4 to the wells and measured at A450 using Varioskan (Thermo Fisher Scientific). Data was analysed with OriginPro 2017-software.
Assay was performed as in the previous paragraph (under title L-Thyroxine) except instead of T4 (Thyroxine) TIBPA (Tetraiodobisphenol A) was used.
Assay was performed as in the paragraph under title L-Thyroxine except instead of T4 (Thyroxine) TBBPA (Tetrabromobisphenol A) was used.
Assay was performed as in the paragraph under title L-Thyroxine except instead of T4 (Thyroxine) TCBPA (Tetrachlorobisphenol A) was used.
Assay was performed as in the paragraph under title L-Thyroxine except instead of T4 (Thyroxine) BPA (Bisphenol A) was used.
In general terms: In an ELISA, binding on a coated surface is turned into a signal by an enzyme label.

Each structure is given as a SMILES string.

Turning to `CC(C)(c1cc(I)c(O)c(I)c1)c1cc(I)c(O)c(I)c1` [TIBPA, Tetraiodobisphenol A], the “sensitivity of the competitive ELISA assay compared with L-thyroxine” value is given as “two orders of magnitude less”.

`N[C@@H](Cc1cc(I)c(Oc2cc(I)c(O)c(I)c2)c(I)c1)C(=O)O` [Compound T4, 3,5,3′,5′-tetraiodothyronine]: where the note is “FIG. 5”, the “Limit of detection (LOD)” value amounted to 84 pM and the “Limit of quantification (LOQ)” value is reported as 314 pM. Regarding `CC(C)(c1cc(Cl)c(O)c(Cl)c1)c1cc(Cl)c(O)c(Cl)c1` [TCBPA, Tetrachlorobisphenol A], the “sensitivity of the competitive ELISA assay compared with L-thyroxine” value was “three orders of magnitude less”. Still for that read-out and setting: the entry for `CC(C)(c1cc(Br)c(O)c(Br)c1)c1cc(Br)c(O)c(Br)c1` [TBBPA, Tetrabromobisphenol A] is “more than two orders of magnitude less”.
